Results are given in words; binding and its absence hold for the method and conditions named. Some results given as binding are weak or reduced against the parent protein; the word gives no strength.

Sequences of proteins named here, by UniProt entry; tags and fusion partners are left off. Residues count along the entry.
UniProt P02787, residues 20-698: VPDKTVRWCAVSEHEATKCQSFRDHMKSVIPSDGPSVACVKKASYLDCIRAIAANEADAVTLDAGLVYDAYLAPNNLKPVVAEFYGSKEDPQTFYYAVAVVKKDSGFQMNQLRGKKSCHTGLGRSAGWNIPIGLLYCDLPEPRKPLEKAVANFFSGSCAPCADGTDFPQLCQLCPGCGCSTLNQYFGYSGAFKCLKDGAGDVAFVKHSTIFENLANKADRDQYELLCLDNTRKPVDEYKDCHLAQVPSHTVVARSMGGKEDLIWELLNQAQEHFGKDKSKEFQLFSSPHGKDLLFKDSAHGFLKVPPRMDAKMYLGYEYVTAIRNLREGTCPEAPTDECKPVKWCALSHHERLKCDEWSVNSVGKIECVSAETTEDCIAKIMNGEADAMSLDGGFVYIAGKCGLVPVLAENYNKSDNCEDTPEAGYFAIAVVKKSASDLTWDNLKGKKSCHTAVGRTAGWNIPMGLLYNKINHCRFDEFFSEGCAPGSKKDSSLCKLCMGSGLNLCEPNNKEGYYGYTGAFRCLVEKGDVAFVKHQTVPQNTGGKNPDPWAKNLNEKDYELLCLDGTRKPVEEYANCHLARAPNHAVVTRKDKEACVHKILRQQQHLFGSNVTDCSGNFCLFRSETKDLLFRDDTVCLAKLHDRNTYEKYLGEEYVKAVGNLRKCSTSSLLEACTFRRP

The assay concerns the target cynomolgus TfR1, construct not stated (cynomolgus). Nature of the assay: BLI, capture of cTfR1 on transferrin-loaded sensors. For orientation: In BLI a coated tip is dipped into the sample, and binding shifts an interference pattern.

In the case of “human holo-transferrin (from UniProt P02787 20-698) (ligand)”, the binding entry was “binds”.

For the origin of these results see patent US20260265396A1.
